Experimental findings from paper PMC4826180 are described below.

Chains of the proteins cited; added tags and fusions are not shown. Residues count along the entry.
UniProt P02751, residues 32-2477: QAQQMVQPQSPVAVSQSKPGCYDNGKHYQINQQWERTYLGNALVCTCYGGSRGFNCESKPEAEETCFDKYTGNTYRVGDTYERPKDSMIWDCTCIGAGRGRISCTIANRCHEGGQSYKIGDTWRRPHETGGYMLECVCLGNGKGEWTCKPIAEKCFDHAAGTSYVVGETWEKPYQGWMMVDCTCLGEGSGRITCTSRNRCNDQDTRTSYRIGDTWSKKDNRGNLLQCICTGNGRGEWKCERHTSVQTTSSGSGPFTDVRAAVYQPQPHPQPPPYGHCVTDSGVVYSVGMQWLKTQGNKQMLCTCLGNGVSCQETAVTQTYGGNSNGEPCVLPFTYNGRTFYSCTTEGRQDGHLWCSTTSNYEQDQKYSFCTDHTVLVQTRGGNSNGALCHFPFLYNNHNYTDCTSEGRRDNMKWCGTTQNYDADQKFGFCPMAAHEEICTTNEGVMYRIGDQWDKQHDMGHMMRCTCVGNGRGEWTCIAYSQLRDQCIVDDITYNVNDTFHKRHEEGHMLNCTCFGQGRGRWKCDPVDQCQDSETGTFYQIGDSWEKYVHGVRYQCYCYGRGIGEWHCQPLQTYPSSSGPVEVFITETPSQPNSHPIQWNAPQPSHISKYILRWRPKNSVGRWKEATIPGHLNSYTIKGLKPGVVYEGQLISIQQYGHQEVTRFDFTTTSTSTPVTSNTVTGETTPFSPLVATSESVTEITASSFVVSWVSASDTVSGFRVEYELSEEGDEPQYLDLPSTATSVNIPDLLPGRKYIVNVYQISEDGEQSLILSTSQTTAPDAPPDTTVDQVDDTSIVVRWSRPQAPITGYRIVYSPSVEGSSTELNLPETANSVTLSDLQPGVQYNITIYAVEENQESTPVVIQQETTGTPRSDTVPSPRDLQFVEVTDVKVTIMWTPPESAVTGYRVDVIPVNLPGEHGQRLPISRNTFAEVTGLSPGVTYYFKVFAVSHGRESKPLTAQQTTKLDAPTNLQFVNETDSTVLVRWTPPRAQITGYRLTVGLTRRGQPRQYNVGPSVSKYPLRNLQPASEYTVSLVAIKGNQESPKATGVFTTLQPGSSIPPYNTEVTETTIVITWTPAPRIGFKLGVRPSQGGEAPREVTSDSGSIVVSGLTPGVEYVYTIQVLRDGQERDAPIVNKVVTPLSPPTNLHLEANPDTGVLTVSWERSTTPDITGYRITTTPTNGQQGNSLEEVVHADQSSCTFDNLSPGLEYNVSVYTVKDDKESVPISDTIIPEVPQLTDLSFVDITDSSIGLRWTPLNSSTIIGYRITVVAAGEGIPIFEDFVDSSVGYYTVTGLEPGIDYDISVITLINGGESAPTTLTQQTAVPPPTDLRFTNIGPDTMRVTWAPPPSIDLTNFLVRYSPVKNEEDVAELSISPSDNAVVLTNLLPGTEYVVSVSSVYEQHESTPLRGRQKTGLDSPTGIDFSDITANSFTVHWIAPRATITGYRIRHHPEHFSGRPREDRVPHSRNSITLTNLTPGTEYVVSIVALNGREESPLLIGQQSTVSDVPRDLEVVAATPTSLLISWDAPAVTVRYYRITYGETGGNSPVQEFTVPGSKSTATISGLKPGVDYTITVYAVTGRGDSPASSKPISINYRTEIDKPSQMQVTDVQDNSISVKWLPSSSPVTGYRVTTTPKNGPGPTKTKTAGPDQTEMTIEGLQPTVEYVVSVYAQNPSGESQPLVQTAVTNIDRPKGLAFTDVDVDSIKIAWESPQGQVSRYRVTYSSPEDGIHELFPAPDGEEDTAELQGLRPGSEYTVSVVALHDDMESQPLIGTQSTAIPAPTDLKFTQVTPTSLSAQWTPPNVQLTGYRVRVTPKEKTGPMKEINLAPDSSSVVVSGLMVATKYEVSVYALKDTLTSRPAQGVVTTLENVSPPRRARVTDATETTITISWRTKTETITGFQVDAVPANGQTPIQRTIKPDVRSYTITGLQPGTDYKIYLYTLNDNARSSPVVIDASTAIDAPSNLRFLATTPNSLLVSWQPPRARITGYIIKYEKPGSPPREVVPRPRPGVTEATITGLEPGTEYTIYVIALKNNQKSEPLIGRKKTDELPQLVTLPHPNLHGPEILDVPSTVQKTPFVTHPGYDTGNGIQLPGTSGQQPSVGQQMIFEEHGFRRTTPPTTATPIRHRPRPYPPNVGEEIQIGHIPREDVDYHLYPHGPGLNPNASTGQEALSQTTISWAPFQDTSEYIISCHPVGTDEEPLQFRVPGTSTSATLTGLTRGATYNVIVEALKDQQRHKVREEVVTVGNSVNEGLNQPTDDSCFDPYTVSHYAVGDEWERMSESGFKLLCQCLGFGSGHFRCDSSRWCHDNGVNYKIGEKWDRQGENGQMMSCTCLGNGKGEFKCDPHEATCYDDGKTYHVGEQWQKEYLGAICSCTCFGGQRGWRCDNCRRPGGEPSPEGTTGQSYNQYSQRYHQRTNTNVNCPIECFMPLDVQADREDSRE

These are yes or no findings as the source states them, for the method shown. Binding seen in cells or lysates may run through a third protein. Some entries that bind do so weakly or less than the wild type.

The target of the assay is T1, Regenerating islet-derived 3 alpha (REG3A) (human (endogenous in CRC cells)) (UniProt Q06141).
T1 sequence: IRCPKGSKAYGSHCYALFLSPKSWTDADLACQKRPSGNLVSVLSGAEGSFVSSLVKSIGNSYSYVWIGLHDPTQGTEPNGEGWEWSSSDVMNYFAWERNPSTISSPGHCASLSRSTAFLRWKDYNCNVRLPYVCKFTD
The assay is described as follows: co-IP; CRC cell lysates reacted with anti-REG3A (Ab134309, Abcam) or control IgG for 1 h at 4°C, then protein A-agarose for 3 h at 4°C; washed three times in lysis buffer; western blot. Background: Immunoblotting shows a protein as a band on a membrane.

With “Fibronectin1 (FN1) (from UniProt P02751 32-2477)”, the binding result is on record as “binds”.
